Data as given in PubChem BioAssay AID1259265 (Sanger Institute, 2017)
This is one part, drawn at random, of 160 reagents. Of all reagents, 31 (19%) got an active call. 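Calls refer to single siRNAs; agreement across several siRNAs per gene and other cell lines is not shown.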 Reagents against one gene are numbered here. Viability is capped at 1. Further read-outs or replicates are left out here. The record does not give: the amount of reagent, the time to read-out.

- Screen: 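Retest single siRNAs, four per gene, for boosting anchor drug effects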 (follow-up of hits)
- System: SW620 human colorectal cancer cells
- Reagents: single siRNA against human genes
- Challenge: anchor drug given a day after transfection: BYL719 at 1 µM, cetuximab at 5 µg/ml, trametinib at 10 nM; DMSO alone as the comparison arm
- Read-out: 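Viability of each well as a fraction of the non-targeting pool 2 control, mean of replicates; synergy score weighing the combined effect against siRNA and drug alone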
- Reading the numbers: synergy score with trametinib: higher = stronger synergy (synthetic lethal) with trametinib; synergy score with BYL719: higher = stronger synergy (synthetic lethal) with BYL719; synergy score with cetuximab: higher = stronger synergy (synthetic lethal) with cetuximab; viability, siRNA alone (DMSO): higher = more surviving cells
- Active means: 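Synergistic (synthetic lethal) when the synergy score tops 0.10 with trametinib, BYL719 or cetuximab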

gene knocked down | reagent | synergy score with trametinib | synergy score with BYL719 | synergy score with cetuximab | viability, siRNA alone (DMSO) (fraction of control) | Outcome
PINK1 | 1 | -0.0461 | -0.34 | -0.00514 | 0.951 | inactive
PINK1 | 2 | 0.141 | -0.0768 | -0.135 | 0.818 | active
PINK1 | 3 | 0.0927 | -0.169 | -0.0698 | 0.897 | inactive
PINK1 | 4 | 0.124 | -0.0222 | -0.116 | 0.96 | active
CHD4 | 1 | -0.0213 | -0.121 | -0.0389 | 0.822 | inactive
CHD4 | 2 | 0.056 | -0.206 | 0.12 | 0.794 | –
CHD4 | 3 | -0.0262 | -0.0308 | 0.118 | 0.792 | –
CHD4 | 4 | -0.0995 | -0.165 | -0.051 | 1 | inactive
GUCY2D | 1 | 0.0234 | -0.155 | -0.122 | 1 | inactive
GUCY2D | 2 | 0.0576 | -0.0728 | -0.0528 | 0.854 | inactive
GUCY2D | 3 | -0.185 | -0.22 | -0.153 | 0.493 | inactive
GUCY2D | 4 | 0.06 | -0.288 | -0.122 | 1 | inactive
SF3B1 | 1 | -0.0951 | -0.0556 | -0.05 | 0.179 | inactive
SF3B1 | 2 | -0.0829 | -0.0334 | -0.0178 | 0.255 | inactive
SF3B1 | 3 | -0.0282 | 0.0929 | -0.0381 | 0.41 | inactive
SF3B1 | 4 | -0.0867 | -0.0034 | 0.000897 | 0.254 | inactive
BRAF | 1 | -0.00755 | -0.114 | -0.0464 | 0.703 | inactive
BRAF | 2 | -0.0884 | 0.0462 | -0.0615 | 0.496 | inactive
BRAF | 3 | -0.0121 | -0.0692 | -0.0669 | 0.765 | inactive
BRAF | 4 | 0.0699 | -0.0344 | -0.107 | 1 | inactive
MAP3K8 | 1 | -0.0745 | -0.182 | -0.122 | 1 | inactive
MAP3K8 | 2 | -0.163 | -0.117 | -0.144 | 0.573 | inactive
MAP3K8 | 3 | -0.147 | -0.0869 | -0.0655 | 1 | inactive
MAP3K8 | 4 | 0.139 | -0.0092 | 0.0908 | 1 | active
MPP3 | 1 | 0.0323 | -0.306 | -0.122 | 1 | inactive
MPP3 | 2 | -0.0383 | -0.105 | -0.00488 | 0.961 | inactive
MPP3 | 3 | 0.326 | 0.0681 | -0.149 | 0.969 | active
MPP3 | 4 | 0.0101 | -0.146 | -0.0347 | 0.756 | inactive
CRIM1 | 1 | -0.0995 | 0.00501 | -0.178 | 0.936 | inactive
CRIM1 | 2 | 0.0215 | -0.138 | -0.0169 | 0.816 | inactive
CRIM1 | 3 | 0.0208 | 0.088 | -0.142 | 0.903 | inactive
CRIM1 | 4 | 0.0711 | -0.129 | -0.0484 | 0.755 | inactive
IKBKB | 1 | -0.241 | -0.0829 | -0.1 | 0.775 | inactive
IKBKB | 2 | -0.0251 | -0.0791 | 0.0391 | 0.992 | inactive
IKBKB | 3 | -0.0951 | -0.275 | -0.122 | 1 | inactive
IKBKB | 4 | -0.0593 | -0.183 | -0.156 | 0.86 | inactive
RPS6KA4 | 1 | 0.0273 | -0.143 | -0.0182 | 0.963 | inactive
RPS6KA4 | 2 | 0.0473 | -0.0498 | -0.0139 | 0.84 | inactive
RPS6KA4 | 3 | -0.0172 | -0.174 | -0.0166 | 0.831 | inactive
RPS6KA4 | 4 | 0.0929 | 0.0659 | 0.0306 | 0.798 | inactive
COASY | 1 | 0.0358 | 0.0401 | -0.0525 | 1 | inactive
COASY | 2 | -0.121 | 0.0688 | -0.0768 | 0.975 | inactive
COASY | 3 | -0.00743 | -0.0475 | 0.111 | 0.511 | –
COASY | 4 | 0.00242 | 0.0688 | 0.0302 | 0.593 | inactive
NR2F2 | 1 | 0.0842 | -0.194 | 0 | 0.934 | inactive
NR2F2 | 2 | 0.0179 | -0.128 | -0.0491 | 0.971 | inactive
NR2F2 | 3 | -0.113 | -0.306 | 0.0111 | 1 | inactive
NR2F2 | 4 | 0.171 | -0.0743 | -0.0971 | 0.873 | active
CSNK2A2 | 1 | -0.0472 | -0.192 | -0.122 | 1 | inactive
CSNK2A2 | 2 | -0.0555 | -0.0737 | -0.0266 | 0.292 | inactive
CSNK2A2 | 3 | 0.0948 | -0.103 | -0.00213 | 0.761 | inactive
CSNK2A2 | 4 | 0.0254 | -0.127 | -0.0926 | 0.345 | inactive
